Reference: the supplement of paper PMC12819154, “High-throughput peptide-centric local stability assay extends protein–ligand identification to membrane proteins, tissues and bacteria” (Nature Structural & Molecular Biology, 2025)
This is one part of the list. Most entries show no effect beyond the scatter of the controls.

Chains of the proteins cited; added tags and fusions are not shown. Lines headed by an entry give the natural chain unless they say otherwise; changes in a name come on top.
UniProt P70372, whole entry: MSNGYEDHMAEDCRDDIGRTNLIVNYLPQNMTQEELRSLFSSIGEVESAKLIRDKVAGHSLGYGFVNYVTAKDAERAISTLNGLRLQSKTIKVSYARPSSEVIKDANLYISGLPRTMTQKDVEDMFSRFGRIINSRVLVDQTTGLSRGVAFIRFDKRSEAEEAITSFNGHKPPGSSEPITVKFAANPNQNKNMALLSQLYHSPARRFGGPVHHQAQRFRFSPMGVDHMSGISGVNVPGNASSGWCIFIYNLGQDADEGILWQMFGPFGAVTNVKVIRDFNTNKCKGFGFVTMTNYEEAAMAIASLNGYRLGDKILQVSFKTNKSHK
UniProt P70227, whole entry: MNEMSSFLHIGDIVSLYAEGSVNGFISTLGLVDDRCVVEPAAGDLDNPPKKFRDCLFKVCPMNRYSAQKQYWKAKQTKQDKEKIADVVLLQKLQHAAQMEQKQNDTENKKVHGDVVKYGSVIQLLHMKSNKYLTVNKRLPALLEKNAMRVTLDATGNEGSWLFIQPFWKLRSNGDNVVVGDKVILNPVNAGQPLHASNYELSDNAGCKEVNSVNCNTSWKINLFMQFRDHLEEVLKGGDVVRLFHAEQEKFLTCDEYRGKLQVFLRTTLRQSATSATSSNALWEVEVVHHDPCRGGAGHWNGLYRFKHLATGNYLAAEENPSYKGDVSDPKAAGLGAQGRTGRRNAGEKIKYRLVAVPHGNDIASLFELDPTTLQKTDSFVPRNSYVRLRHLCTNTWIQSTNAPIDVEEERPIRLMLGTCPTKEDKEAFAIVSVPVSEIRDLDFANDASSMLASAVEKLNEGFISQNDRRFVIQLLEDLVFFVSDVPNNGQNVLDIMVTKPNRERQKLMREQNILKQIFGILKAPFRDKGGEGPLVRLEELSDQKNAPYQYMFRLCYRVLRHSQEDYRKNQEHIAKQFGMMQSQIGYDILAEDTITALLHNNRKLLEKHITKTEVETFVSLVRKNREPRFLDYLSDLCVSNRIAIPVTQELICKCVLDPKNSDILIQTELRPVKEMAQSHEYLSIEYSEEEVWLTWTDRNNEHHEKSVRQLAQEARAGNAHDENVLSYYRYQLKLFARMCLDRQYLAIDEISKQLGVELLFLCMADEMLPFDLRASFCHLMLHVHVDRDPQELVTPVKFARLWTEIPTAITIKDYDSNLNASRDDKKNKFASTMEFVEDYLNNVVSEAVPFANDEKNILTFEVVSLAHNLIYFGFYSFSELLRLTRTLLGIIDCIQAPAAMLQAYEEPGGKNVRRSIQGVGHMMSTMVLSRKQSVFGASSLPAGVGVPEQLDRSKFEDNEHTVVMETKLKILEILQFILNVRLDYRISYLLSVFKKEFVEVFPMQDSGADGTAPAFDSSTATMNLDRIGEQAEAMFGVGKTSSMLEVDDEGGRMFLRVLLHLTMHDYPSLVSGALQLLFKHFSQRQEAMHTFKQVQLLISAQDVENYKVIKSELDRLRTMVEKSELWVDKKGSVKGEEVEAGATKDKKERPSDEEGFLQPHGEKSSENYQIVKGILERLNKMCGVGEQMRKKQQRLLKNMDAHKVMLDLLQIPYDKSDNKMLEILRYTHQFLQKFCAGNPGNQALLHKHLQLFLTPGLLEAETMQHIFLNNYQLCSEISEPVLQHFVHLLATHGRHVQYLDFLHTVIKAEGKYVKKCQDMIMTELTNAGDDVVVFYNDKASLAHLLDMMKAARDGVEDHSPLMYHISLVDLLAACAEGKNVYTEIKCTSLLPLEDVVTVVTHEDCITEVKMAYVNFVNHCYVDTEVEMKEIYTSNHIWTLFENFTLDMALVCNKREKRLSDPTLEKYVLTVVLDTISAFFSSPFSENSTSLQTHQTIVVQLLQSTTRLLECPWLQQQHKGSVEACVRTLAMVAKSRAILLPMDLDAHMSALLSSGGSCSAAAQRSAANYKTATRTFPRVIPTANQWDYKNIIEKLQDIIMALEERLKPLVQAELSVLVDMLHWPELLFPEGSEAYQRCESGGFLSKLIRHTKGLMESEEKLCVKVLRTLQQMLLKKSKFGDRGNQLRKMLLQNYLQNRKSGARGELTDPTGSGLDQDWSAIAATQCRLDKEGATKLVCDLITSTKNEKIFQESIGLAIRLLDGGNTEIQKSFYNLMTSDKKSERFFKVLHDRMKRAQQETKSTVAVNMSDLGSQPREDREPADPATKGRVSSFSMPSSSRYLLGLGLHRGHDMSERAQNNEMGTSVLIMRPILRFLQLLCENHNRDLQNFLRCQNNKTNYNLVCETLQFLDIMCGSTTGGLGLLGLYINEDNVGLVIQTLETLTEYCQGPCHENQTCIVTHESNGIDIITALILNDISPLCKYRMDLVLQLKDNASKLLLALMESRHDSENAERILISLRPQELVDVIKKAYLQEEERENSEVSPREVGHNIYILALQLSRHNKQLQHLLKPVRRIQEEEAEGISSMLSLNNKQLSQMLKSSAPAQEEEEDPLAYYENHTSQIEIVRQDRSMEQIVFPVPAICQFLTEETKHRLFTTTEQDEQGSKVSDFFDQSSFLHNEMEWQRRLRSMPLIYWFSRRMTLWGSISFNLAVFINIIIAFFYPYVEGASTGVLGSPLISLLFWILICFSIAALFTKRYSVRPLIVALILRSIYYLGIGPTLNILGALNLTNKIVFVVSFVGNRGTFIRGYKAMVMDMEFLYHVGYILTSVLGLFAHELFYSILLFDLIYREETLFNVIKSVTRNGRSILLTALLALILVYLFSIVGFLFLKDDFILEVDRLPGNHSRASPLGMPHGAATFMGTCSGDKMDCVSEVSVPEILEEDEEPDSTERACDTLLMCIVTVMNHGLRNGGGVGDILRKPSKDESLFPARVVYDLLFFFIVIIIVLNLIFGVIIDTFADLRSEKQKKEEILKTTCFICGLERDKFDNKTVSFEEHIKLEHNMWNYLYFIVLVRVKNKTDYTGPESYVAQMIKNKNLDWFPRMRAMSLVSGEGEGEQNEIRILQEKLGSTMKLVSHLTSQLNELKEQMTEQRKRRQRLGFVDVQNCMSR
UniProt P97364, whole entry: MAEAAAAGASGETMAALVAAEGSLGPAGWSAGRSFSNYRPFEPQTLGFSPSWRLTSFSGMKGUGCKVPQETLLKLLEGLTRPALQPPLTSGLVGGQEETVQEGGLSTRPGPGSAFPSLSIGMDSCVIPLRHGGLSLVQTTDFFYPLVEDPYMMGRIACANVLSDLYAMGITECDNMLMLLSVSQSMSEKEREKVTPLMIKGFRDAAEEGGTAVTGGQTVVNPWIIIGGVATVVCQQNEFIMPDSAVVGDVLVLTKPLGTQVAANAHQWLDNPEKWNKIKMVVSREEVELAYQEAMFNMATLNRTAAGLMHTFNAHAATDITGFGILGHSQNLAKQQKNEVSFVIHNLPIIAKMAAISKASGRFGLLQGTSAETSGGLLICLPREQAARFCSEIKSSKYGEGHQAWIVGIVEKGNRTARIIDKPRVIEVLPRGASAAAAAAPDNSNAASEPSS
UniProt Q02566, whole entry: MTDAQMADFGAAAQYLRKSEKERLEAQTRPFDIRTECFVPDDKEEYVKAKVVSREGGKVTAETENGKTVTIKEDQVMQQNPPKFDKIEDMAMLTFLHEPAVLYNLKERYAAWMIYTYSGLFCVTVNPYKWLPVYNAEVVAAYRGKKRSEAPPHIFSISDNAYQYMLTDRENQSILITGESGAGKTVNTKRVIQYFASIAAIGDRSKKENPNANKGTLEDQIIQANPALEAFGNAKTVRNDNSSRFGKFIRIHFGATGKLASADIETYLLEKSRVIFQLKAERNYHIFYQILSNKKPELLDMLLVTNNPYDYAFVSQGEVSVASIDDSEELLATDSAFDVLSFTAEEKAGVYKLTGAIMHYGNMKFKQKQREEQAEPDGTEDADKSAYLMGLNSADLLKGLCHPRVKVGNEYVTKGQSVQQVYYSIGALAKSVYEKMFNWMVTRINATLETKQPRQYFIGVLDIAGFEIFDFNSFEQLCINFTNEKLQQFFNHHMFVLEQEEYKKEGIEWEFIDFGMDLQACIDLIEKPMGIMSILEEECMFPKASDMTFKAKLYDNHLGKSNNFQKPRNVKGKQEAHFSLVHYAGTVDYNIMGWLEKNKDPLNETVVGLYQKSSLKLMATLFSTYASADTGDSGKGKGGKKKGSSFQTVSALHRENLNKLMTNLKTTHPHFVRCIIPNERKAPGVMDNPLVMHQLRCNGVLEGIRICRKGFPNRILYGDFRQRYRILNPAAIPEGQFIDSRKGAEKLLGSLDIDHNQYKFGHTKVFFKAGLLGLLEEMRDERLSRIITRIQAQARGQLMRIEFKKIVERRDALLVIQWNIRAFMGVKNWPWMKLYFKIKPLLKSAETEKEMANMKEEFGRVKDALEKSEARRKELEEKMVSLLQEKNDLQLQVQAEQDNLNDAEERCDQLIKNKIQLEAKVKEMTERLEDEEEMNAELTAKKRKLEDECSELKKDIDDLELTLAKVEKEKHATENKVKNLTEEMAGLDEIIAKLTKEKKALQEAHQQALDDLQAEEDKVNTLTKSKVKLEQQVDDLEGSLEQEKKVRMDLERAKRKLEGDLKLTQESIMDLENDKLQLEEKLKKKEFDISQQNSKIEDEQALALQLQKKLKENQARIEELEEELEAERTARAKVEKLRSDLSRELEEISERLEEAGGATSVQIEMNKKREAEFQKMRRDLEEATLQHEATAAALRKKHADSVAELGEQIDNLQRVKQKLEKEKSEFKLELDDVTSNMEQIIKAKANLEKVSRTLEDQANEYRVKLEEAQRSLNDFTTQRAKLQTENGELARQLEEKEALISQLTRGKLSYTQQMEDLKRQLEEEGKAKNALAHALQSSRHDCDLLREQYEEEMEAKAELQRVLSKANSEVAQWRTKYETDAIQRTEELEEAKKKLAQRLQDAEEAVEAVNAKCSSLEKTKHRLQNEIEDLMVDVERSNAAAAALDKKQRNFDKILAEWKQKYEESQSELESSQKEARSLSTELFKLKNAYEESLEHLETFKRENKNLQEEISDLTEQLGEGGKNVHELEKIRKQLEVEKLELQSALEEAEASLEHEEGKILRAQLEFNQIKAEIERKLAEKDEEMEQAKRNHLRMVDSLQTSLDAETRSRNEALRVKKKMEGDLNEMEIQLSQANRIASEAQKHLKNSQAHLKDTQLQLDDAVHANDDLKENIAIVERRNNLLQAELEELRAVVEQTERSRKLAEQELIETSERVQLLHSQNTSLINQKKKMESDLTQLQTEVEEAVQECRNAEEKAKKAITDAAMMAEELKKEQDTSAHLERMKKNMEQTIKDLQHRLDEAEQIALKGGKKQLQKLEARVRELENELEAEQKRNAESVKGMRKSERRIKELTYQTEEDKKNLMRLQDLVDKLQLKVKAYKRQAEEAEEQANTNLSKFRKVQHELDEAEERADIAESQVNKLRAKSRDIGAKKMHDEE
UniProt P97785: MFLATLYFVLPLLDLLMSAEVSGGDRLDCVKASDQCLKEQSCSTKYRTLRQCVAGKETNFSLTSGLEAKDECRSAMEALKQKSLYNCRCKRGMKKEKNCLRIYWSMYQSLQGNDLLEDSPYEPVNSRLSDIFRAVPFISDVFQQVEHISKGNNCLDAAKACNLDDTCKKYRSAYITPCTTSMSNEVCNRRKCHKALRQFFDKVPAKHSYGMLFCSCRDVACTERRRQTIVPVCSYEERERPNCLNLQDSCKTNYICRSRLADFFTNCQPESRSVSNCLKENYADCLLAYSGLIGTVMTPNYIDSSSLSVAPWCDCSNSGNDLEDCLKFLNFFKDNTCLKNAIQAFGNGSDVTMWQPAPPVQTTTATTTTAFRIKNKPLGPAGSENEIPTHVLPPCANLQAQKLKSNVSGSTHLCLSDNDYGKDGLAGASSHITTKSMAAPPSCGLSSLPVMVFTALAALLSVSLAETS
UniProt P98192: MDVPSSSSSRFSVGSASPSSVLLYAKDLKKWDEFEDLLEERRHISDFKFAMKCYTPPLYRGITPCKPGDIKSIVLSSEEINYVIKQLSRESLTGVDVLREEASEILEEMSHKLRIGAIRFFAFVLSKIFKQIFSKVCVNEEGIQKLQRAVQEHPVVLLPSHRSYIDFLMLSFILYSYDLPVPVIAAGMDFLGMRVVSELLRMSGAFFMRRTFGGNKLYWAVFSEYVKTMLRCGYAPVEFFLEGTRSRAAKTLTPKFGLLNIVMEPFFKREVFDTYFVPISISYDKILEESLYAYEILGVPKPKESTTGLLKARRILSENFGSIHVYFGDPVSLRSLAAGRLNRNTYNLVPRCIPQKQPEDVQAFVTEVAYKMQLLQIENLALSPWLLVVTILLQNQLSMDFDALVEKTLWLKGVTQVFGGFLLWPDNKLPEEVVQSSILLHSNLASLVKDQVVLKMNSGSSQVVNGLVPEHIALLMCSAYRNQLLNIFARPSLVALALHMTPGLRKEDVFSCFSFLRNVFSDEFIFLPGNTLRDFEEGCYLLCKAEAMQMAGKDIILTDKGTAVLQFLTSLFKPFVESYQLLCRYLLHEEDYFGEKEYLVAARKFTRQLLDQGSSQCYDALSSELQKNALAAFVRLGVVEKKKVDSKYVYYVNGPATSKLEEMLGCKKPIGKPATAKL

Compound: CN[C@@H]1C[C@H]2O[C@@](C)([C@@H]1OC)n1c3ccccc3c3c4c(c5c6ccccc6n2c5c31)C(=O)NC4 [staurosporine]
Test: log2 fold change of tryptic peptide abundance, ligand vs vehicle (limited proteolysis) (log2 ratio); higher = more trypsin-susceptible (destabilized)
Details: ligand concentration: 20 uM; sample: mouse liver crude lysate; replicate design: treated separately

Target | log2 fold change
UniProt P70372 (peptide sequence: VSYARPSSEVIKDANLYISGLPR, peptide start residue: 93) | -0.372
UniProt P70224 (peptide sequence: CADPQDQVAK, peptide start residue: 209) | 0.257
UniProt P70700 (peptide sequence: ANVSINNENLMK, peptide start residue: 407) | 0.383
UniProt Q00PI9 (peptide sequence: YGGQPLFSEK, peptide start residue: 262) | 0.255
UniProt P70227 (peptide sequence: ERPSDEEGFLQPHGEK, peptide start residue: 1149) | 0.632
UniProt P97364 (peptide sequence: SSKYGEGHQAWIVGIVEKGNR, peptide start residue: 395) | -0.318
UniProt P63321 (peptide sequence: VIMVGSGGVGK, peptide start residue: 17) | 0.257
UniProt Q02566 (peptide sequence: NLMRLQDLVDK, peptide start residue: 1862) | 0.0311
UniProt P97785 (peptide sequence: ASDQCLKEQSCSTK, peptide start residue: 32) | 0.444
UniProt P70266 (peptide sequence: GKTYISTK, peptide start residue: 54) | -0.524
UniProt P98192 (peptide sequence: NTYNLVPR, peptide start residue: 344) | 0.342

3 entries from above, as tab-separated lines.
Target	log2 fold change
UniProt P70372 (peptide sequence: VSYARPSSEVIKDANLYISGLPR, peptide start residue: 93)	-0.372
UniProt P70700 (peptide sequence: ANVSINNENLMK, peptide start residue: 407)	0.383
UniProt P63321 (peptide sequence: VIMVGSGGVGK, peptide start residue: 17)	0.257
